Reference: the supplement of paper PMC3334620
Over roughly 33,000 sequences, “E-score (-0.5 to 0.5)” has its median near -0.015; the highest 2% begin near 0.3. The list shows a part of the results.

Target: T1, Abf1 (UniProt P14164)
T1 sequence: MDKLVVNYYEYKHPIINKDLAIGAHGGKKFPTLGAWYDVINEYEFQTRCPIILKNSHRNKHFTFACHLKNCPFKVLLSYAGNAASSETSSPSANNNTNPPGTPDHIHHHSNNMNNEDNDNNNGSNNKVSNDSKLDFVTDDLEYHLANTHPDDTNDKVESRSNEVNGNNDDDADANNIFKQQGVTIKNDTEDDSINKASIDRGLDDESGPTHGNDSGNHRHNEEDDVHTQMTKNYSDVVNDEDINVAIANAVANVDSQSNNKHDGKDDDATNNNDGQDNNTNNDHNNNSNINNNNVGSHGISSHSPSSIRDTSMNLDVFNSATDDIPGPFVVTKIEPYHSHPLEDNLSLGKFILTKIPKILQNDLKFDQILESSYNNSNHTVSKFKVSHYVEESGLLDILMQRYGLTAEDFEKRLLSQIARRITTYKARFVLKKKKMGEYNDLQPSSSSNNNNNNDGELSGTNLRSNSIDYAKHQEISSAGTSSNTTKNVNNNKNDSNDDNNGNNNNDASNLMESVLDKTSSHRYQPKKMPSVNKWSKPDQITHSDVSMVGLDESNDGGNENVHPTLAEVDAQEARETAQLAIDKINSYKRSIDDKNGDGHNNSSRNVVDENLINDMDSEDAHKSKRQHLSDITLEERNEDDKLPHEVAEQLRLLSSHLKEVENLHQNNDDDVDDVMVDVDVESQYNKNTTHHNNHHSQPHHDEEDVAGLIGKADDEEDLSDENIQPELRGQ
Experiment: PBM E-score (8-mer binding enrichment) (E-score (-0.5 to 0.5)); higher = stronger / more preferred TF binding
Details: protein concentration: 200 nM; construct: GST-full length
Method in brief: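 Yeast transcription factors carrying a GST tag, as full-length proteins or DNA-binding domains, were produced by PURExpress in vitro transcription/translation. About 100-200 nM protein was applied to universal all-10-mer Agilent arrays, double-stranded by primer extension on fresh or once-stripped slides. Bound protein was detected with fluorescent anti-GST, and scans were normalised with masliner. The Universal PBM Analysis Suite gave each ungapped eight-base word, pooled with its reverse complement, an E-score, a modified Wilcoxon-Mann-Whitney statistic.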

Going from CTGGTCTA to GCCGACTA, the “PBM E-score” value rises from -0.141 to 0.101.

Going from CGACATCC to AGATTTCC, the “PBM E-score” value falls from 0.121 to -0.152.

Compared with AAGGCAAA, ACGTTCTA is higher in “PBM E-score” value: 0.0203 for the first, 0.0602 for the second.

First: ACCGCTTG
Second: CAACGGGA
The “PBM E-score” value of the first is higher: 0.0321 for the first, 0.00287 for the second.

Going from CAACCCCC to CGGCCCGA, the “PBM E-score” value rises from -0.266 to -0.0802.

Compared with AACGCAAG, CAAGTCCA is lower in “PBM E-score” value: 0.0166 for the first, -0.138 for the second.

First: CGAATAAG
Second: CAACACGA
The “PBM E-score” value of the first is lower: -0.19 for the first, 0.107 for the second.

Going from GTATCGTA to GCCTACGA, the “PBM E-score” value falls from 0.246 to 0.239.

First: ACCACGCC
Second: TCGACCGA
The “PBM E-score” value of the first is lower: -0.159 for the first, -0.0251 for the second.

Going from ACCATTGA to AAGCAAGA, the “PBM E-score” value rises from -0.16 to -0.00701.

Compared with TAAGTCAA, GACAATCC is higher in “PBM E-score” value: -0.134 for the first, 0.0976 for the second.

Going from CTTATAGA to ATGCTAGC, the “PBM E-score” value rises from -0.0474 to 0.00665.

Compared with AGTACTGA, ACCGGGCG is lower in “PBM E-score” value: -0.0709 for the first, -0.0884 for the second.

First: CAATTGGA
Second: ATGGTTTC
The “PBM E-score” value of the first is lower: -0.0786 for the first, -0.0221 for the second.

Going from CACATTCA to CCAAAAAC, the “PBM E-score” value rises from -0.0832 to 0.143.

Compared with AGATCTCG, CAGACCGC is lower in “PBM E-score” value: -0.0282 for the first, -0.0722 for the second.

First: ACTATCAG
Second: AATCAGTC
The “PBM E-score” value of the first is lower: -0.0348 for the first, 0.165 for the second.

Compared with CACTCGCA, AAAACTCT is lower in “PBM E-score” value: -0.0365 for the first, -0.0704 for the second.

Going from ATAGGCCA to CCCACAAC, the “PBM E-score” value rises from -0.219 to -0.0362.

Compared with CGGTGGGA, CTAATGGC is higher in “PBM E-score” value: -0.158 for the first, -0.107 for the second.

First: AGCGTGCA
Second: ATTCACTG
The “PBM E-score” value of the first is higher: 0.0338 for the first, -0.205 for the second.

First: GATACTGC
Second: CACCGGGG
The “PBM E-score” value of the first is higher: -0.00387 for the first, -0.306 for the second.

Going from CCCTGTAG to AGACGTCC, the “PBM E-score” value rises from -0.2 to 0.0232.

First: ATCTGAAA
Second: AGGTCCTG
The “PBM E-score” value of the first is higher: 0.0724 for the first, -0.185 for the second.

Going from AAACCACA to AGAGCTTC, the “PBM E-score” value falls from -0.0331 to -0.139.

Going from ACAAACCG to GACAAGTA, the “PBM E-score” value rises from -0.0187 to 0.0435.

First: CGCTCGAA
Second: TAGATAAA
The “PBM E-score” value of the first is lower: -0.0539 for the first, 0.0715 for the second.

First: CACTCAAC
Second: GGTGGATA
The “PBM E-score” value of the first is lower: -0.0212 for the first, 0.0595 for the second.

Going from ACGAAACG to ACATAGTG, the “PBM E-score” value falls from 0.229 to 0.0393.

Compared with GACTAACC, GCTGCTTA is lower in “PBM E-score” value: -0.126 for the first, -0.223 for the second.

Compared with CCGTTTTA, CCAATTGG is lower in “PBM E-score” value: 0.203 for the first, 0.155 for the second.

Compared with ATGTATGC, CCGTACGC is higher in “PBM E-score” value: 0.022 for the first, 0.241 for the second.

First: ATCCCCAT
Second: CAAGGGAG
The “PBM E-score” value of the first is higher: -0.0421 for the first, -0.103 for the second.

First: AAGCCGGT
Second: GCGGGAGC
The “PBM E-score” value of the first is higher: -0.0549 for the first, -0.288 for the second.

Compared with AAAGACTA, CGTCCTAG is higher in “PBM E-score” value: -0.2 for the first, -0.0233 for the second.

Compared with TATTGTGA, AGCTTCGC is lower in “PBM E-score” value: 0.191 for the first, 0.0433 for the second.

Going from CGTAGATC to ACTAGACA, the “PBM E-score” value falls from 0.159 to 0.14.

First: CAGCTATC
Second: CCCCATCA
The “PBM E-score” value of the first is higher: 0.0097 for the first, -0.235 for the second.

Going from ATCTAATA to ACGTTCCG, the “PBM E-score” value falls from 0.216 to -0.336.

Compared with CCTGCCAG, GTTCCGGA is higher in “PBM E-score” value: -0.157 for the first, -0.0188 for the second.

Going from ATGATCCG to AGTGGTAC, the “PBM E-score” value falls from 0.0927 to -0.207.

Going from AGAGGATA to AGAATAGG, the “PBM E-score” value falls from 0.0676 to 0.052.

Compared with AAAACGAC, ATGCAGCG is lower in “PBM E-score” value: 0.323 for the first, -0.174 for the second.

Going from GGCCAGCA to CAAAGGTG, the “PBM E-score” value rises from -0.196 to -0.108.

First: GCTGTGCA
Second: CCCCCCGC
The “PBM E-score” value of the first is higher: -0.0617 for the first, -0.381 for the second.

Going from GGCAGGCC to GCGACCCA, the “PBM E-score” value rises from -0.316 to -0.0615.

Going from CTTTCCTC to GGAGACAA, the “PBM E-score” value rises from -0.168 to -0.0316.

First: CCCAATCC
Second: CCATCAGC
The “PBM E-score” value of the first is higher: -0.0335 for the first, -0.244 for the second.

First: AATCCTAT
Second: CCAGGTTC
The “PBM E-score” value of the first is higher: 0.104 for the first, -0.24 for the second.

First: AGGCGCCT
Second: ATGAGAAG
The “PBM E-score” value of the first is lower: -0.0375 for the first, 0.117 for the second.

First: AGCTGTTG
Second: TCGAGTAA
The “PBM E-score” value of the first is higher: 0.19 for the first, 0.0992 for the second.

Compared with ACGCGAGC, CAAACTGG is lower in “PBM E-score” value: -0.159 for the first, -0.253 for the second.

First: GAGGTCCA
Second: CTTGGGTC
The “PBM E-score” value of the first is higher: 0.0249 for the first, -0.179 for the second.

Going from TTGGAAAA to AGGCAATA, the “PBM E-score” value falls from -0.157 to -0.204.

First: CACCCTCG
Second: AACGAATA
The “PBM E-score” value of the first is lower: -0.12 for the first, 0.0223 for the second.
